Structures are written as SMILES. Counter-ions that a name gives are not always drawn. Like-named read-outs stand apart in the source and are kept apart here.

Series [1] is described as follows: Pharmacokinetic study in naive mice after intraperitoneal injection. The settings on record: 3 mg/kg. How it is done:
Nine-week-old male Swiss mice (Janvier Labs, Le Genest-Saint-Isle, France), weighing 35–45 g at the time of experimentation, were used. […] Food and tap water were given ad libitum.
Their hind legs were depilated after a 1 min application of a commercial depilatory cream and rinsed with water. Subsequently, the mice were returned to their cages to allow for recovery and complete anesthesia washout. On the day of the experiment, an initial blood sample (20–30 μL) was collected by perforation of the saphenous vein from the mice.
For each treatment group, mice were subdivided into two cohorts, with blood samples collected at distinct time intervals after injection, totaling 14 time points for pharmacokinetic modeling. Compliance with regulatory directives prevented the collection of more than eight blood samples from individual animals. […] Blood samples were acquired using heparinized capillaries containing 2 μL of sodium heparin (Panpharma, France). After collection, the samples were transferred to Eppendorf tubes and centrifuged at 3000 g and 4°C for 10 min. The recovered plasma was then stored at −80°C until analysis. At the end of the experiments, the mice were euthanized by i.p. lethal injection (150 mg/kg) of sodium pentobarbital (Doléthal, Vétoquinol SA, France).
Pharmacokinetic analysis was carried out from the average concentration values at each time point using the Phoenix WinNonLin Version 8.4 software (Certara, Princeton NJ, USA). Pharmacokinetic parameters were determined from the plasma concentration-time data using a compartmental approach and include the total area under the plasma concentration-time curve (AUC0-∞), elimination half-life (t1/2elim), total clearance (CL/F), and volume of distribution (V). CL and V were uncorrected for the bioavailability (F).

The conditions of series [2]: guinea pig, intramuscular injection 0.4 mg/kg, one-compartment profile; cited from earlier work.
The mark [3] stands for this setting: male, Swiss, mouse, in vivo, ip.

With `CN1[C@@H]2CC[C@H]1C[C@@H](OC(=O)C(CO)c1ccccc1)C2` (some centres unmarked) [Atropine, Atropine sulfate monohydrate], the AUC in series [1] (setting [3]) was 113 ng·h/mL. This molecule also yielded a Cmax in series [1] (setting [3]) of 251 ± 5 ng/mL. Further, the time of peak concentration (Tmax) is 8.2 min in series [1] (male, Swiss, mouse, in vivo, ip, T max, naive mice, plasma) and “less than 10 min” in series [2]. Also, in series [1] (naive mice, i.p., LLOQ 0.5 ng/mL tiotropium, 1 ng/mL atropine), the “Time after which plasma concentrations were below the LLOQ” value came to 120 min.

In general, AUC refers to concentration integrated over time. A higher AUC goes with more exposure. One may read the Cmax as the peak of the concentration-time curve. The term Tmax denotes the time at which the peak concentration occurs.

(Values after article PMC11999743 (Journal of Analytical Methods in Chemistry, 2025).)
